According to article PMC6412872:
A negative result means that nothing was seen under these conditions. At least one verdict was read from the data and is not stated in words by the source. For at least one entry, the source does not settle the construct or the ends of the probe.

Legend:
thrombin (human) = test: lateral flow sandwich assay; conditions: PBST (PBS 0.01 M pH 7.4 + Tween) + 1% BSA running buffer, 10 min lateral flow assay, temperature not stated, commercial protein, single-stranded DNA
PDGF-BB = PDGF-BB (UniProt P01127); test: lateral flow sandwich assay; conditions: PBST (PBS 0.01 M pH 7.4 + Tween) + 1% BSA running buffer, 10 min lateral flow assay, temperature not stated, commercial protein, single-stranded DNA

**Q.** Which results are given for “AGTCCGTGGTAGGGCAGGTTGGGGTGACT [thrombin capture aptamer]”?
**A.** binding result (thrombin (human); sandwich with AuNP-N1, 50 nM thrombin, 3' BioTEG, label: 3' biotin (streptavidin on membrane)): binds; binding result (PDGF-BB; 50 nM PDGF-BB alone, no interference on thrombin test zone, 3' BioTEG, label: 3' biotin (streptavidin on membrane)): no binding

**Q.** Does “TACTCAGGGCACTGCAAGCAATTGTGGTCCCAATGGGCTGAGTA [PDGF-BB capture aptamer]” bind (thrombin (human); 50 nM thrombin alone, no interference on PDGF-BB test zone, 3' BioTEG, label: 3' biotin (streptavidin on membrane))?
**A.** Result: no binding

**Q.** Does “TACTCAGGGCACTGCAAGCAATTGTGGTCCCAATGGGCTGAGTA [PDGF-BB capture aptamer]” bind (PDGF-BB; sandwich with AuNP-N3, 50 nM PDGF-BB, 3' BioTEG, label: 3' biotin (streptavidin on membrane))?
**A.** Result: binds

**Q.** Does “TACTCAGGGCACTGCAAGCAATTGTGGTCCCAATGGGCTGAGTAT [PDGF-BB detection aptamer]” bind (PDGF-BB; sandwich with N4, 50 nM PDGF-BB, 5' ThioMC6-D, label: AuNP via 5' thiol)?
**A.** Result: binds

**Q.** Does “TTTTTTTTTTTTTTTTTTTTGGTTGGTGTGGTTGG [thrombin detection aptamer]” bind (thrombin (human); sandwich with N2, 50 nM thrombin, 5' ThioMC6-D, label: AuNP via 5' thiol)?
**A.** Result: binds
